According to patent publication US20230143612A1 (Arbutus Biopharma Corporation, priority 2020, published 2023):
Structures were worked out from names or drawings and are uncertain.

Protein sequences, listed by entry. Tags and fused reporters are not part of them. Residues count along the entry.
UniProt Q9NZQ7, 19-238 limits assumed: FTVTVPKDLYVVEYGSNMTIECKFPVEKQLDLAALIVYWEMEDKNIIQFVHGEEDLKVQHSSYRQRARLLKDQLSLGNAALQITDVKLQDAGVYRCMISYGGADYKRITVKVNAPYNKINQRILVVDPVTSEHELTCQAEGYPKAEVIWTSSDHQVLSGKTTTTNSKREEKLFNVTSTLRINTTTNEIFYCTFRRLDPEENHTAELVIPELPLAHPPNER

Biological target: PD-L1 His protein / PD-1 Fc protein (Homo sapiens, UniProt Q9NZQ7)
Experiment: HTRF Assay (PD-1/PD-L1 interaction)
Conditions: read-out: PD-L1 HTRF IC50; PD-L1 His 6 nM, PD-1 Fc 6 nM
Experimental: PD-L1 His protein was prepared and added at the final concentration of 6 nM in the White opaque 384 well plate (Corning cat #3824BC). PD-L1 small molecule inhibitors were diluted by 3-fold starting from 20 μM and a final concentration of 0.001 μM and added to the well. PD-1 Fc protein was added at the final concentration of 6 nM. PD-L1 His protein, PD-L1 small molecule inhibitors, and PD1 Fc proteins were added to the well in this order, with each 5 μl volume, and were incubated for 15 minutes at room temperature. PAb anti-Human IgG-XL665 (Cisbio, cat #61HFCXLA) and Mab anti-6HIS Tb cryptate Gold (Cisbio, cat #61HI2TLA) were mixed at 6.7 nM and 0.35 nM respectively, and total 5 μl volume of mixture was added to the well and incubated at room temperature for 1 hour. The plate was read using PerkinElmer Envision plate reader and data was analyzed by Prism 6 software.

With `Cc1c(OCc2cc(OCc3cncc(C#N)c3)c(CNCCO)cc2Cl)cccc1-c1cccc(-c2ccn3c(=O)c(CNCCO)cnc3c2)c1C` the IC50 was 4.8 nM.

Work on `Cc1c(OCc2cc(OCc3cncc(C#N)c3)c(CNC[C@@H]3CCC(=O)N3)cc2Cl)cccc1-c1cccc(-c2ccn3c(=O)c(CNC[C@@H]4CCC(=O)N4)cnc3c2)c1C` yielded an IC50 of 13 nM.
